Results reported in PubChem BioAssay AID504847 (National Center for Advancing Translational Sciences (NCATS), 2011).
“And” between values parts separate entries of the source, which are not always exact repeats. Equal entries are not always repeated. About 3,700 (0.93%) of roughly 400,000 compounds were called active. This list was built around the results that the source calls inconclusive (neither active nor inactive); the mix of calls is not that of the screen. Calls follow the shape of the dose curve; as a rule, active = well fitted inhibition curve with a large enough effect; inconclusive = small, poorly fitted or top-dose-only effect, or another doubt; inactive = no such curve, though single readings can be large or run the other way. Potencies of inconclusive entries are doubtful fits and often do not repeat.

Protein sequences, listed by entry. Tags and fused reporters are not part of them. Lines headed by an entry give the natural chain unless they say otherwise; changes in a name come on top.
UniProt P11473: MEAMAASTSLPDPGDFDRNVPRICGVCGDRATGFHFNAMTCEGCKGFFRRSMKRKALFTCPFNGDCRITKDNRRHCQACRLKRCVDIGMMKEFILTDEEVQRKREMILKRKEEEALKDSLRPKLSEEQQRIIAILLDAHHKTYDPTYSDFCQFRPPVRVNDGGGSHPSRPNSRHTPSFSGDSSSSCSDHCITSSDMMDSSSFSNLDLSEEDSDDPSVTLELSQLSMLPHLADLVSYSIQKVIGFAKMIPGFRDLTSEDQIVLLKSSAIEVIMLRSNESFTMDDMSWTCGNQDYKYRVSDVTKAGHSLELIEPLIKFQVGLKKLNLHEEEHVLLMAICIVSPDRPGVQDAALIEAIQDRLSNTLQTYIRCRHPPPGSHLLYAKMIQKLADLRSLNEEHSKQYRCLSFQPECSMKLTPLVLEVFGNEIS

Target: Vitamin D3 receptor (Homo sapiens) (UniProt P11473)
Assay: Inhibitors of the vitamin D receptor (VDR): qHTS
Conditions: VDR-SRC2-3 peptide fluorescence polarization, 2 h; max response, negative = inhibition: hits give low values
Procedure, shortened: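 FP read-out; VDR + SRC2-3 coactivator peptide; 23 nl compound by pintool; 2 h RT incubation; reagents held at 4 deg C, protected from light.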
% is scaled to controls: 0 for no effect and ±100 for the full control effect; potency is read from the fitted curve at half-maximal effect.

**Q.** With `CCOc1ccc(NC(=O)CN2C(=O)COc3ccc(S(=O)(=O)N4CCCC4)cc32)cc1` as the molecule, how does the max response, negative = inhibition read?
**A.** Its max response, negative = inhibition is inactive: -9.6%.

**Q.** For `O=C(Nc1nnc(S(=O)(=O)N2CCOCC2)s1)c1ccc(F)cc1`, which max response, negative = inhibition is on record?
**A.** The max response, negative = inhibition was inactive: -4.91% and inactive: 6.31%.

**Q.** `CC1CN(CC(O)COC(c2ccccc2)c2ccccc2)CC(C)O1` (stereo not drawn) was tested. Which Potency did it give?
**A.** Its Potency is inconclusive: 89.1 µM [inhibitor, partial curve, poor fit].

**Q.** For `COc1cc(C2CC(c3cccs3)=NN2C(=O)CCl)ccc1OC(F)F` (stereo not drawn), which Potency is on record?
**A.** The Potency was inconclusive: 50.1 µM [inhibitor, partial curve, poor fit].

**Q.** With `NC(=O)SCC(=O)Nc1ccc(Cl)c(Cl)c1` as the molecule, how does the Potency read?
**A.** Its Potency is inconclusive: 35.5 µM [inhibitor, full curve, poor fit].

**Q.** How did the Potency turn out when `O=C(Nc1ccc2[nH]c(=S)sc2c1)Nc1ccccc1F` was run?
**A.** The Potency was inconclusive: 89.1 µM [inhibitor, single point].

**Q.** For `O=C(Cn1cnc2ccccc2c1=O)c1ccc2ccccc2c1`, which max response, negative = inhibition is on record?
**A.** The max response, negative = inhibition was inactive: 8.99%.

**Q.** `NS(=O)(=O)c1cccc(NC(=O)c2cccc(Oc3ccccc3)c2)c1` was tested. Which Potency did it give?
**A.** The Potency was inconclusive: 89.1 µM [inhibitor, single point].

**Q.** Which Potency does the source give for `N#C/C(=C\c1cccc([N+](=O)[O-])c1)C(=O)NCc1cccnc1` here?
**A.** The Potency was inconclusive: 79.4 µM [inhibitor, single point].

**Q.** With `CN1CC=C2C(C#N)=C(N)C(C#N)(C#N)C(CCc3ccccc3)C2C1` (stereo not drawn) as the molecule, how does the Potency read?
**A.** Its Potency is inconclusive: 50.1 µM [inhibitor, partial curve].

**Q.** With `Cc1cc(C)n2nc(C(=O)NCc3ccccc3)cc2n1` as the molecule, how does the Potency read?
**A.** The Potency was inconclusive: 89.1 µM [inhibitor, partial curve, poor fit].

**Q.** For `COc1cc(/C=C2/C(=O)c3cccc([N+](=O)[O-])c3C2=O)c(Br)cc1O`, which Potency is on record?
**A.** The Potency was active: 20 µM.

**Q.** How did the Potency turn out when `COC(=O)c1ccc(/C=N/NC(=S)NC(C)C)cc1` was run?
**A.** The Potency was active: 25.1 µM.

**Q.** For `O=C1c2ccccc2-c2onc3c(NCCO)cc(NC4CCCCC4)c1c23`, which Potency is on record?
**A.** Its Potency is inconclusive: 79.4 µM [inhibitor, single point].

**Q.** With `CN(/C=C1/C(=O)CNC1=O)CCO` as the molecule, how does the Potency read?
**A.** Its Potency is inconclusive: 3.98 µM [inhibitor, partial curve, poor fit].

**Q.** `COc1cc(/C=C/C(=O)OCC(=O)c2ccc(OC(F)F)cc2)ccc1O` was tested. Which max response, negative = inhibition did it give?
**A.** Its max response, negative = inhibition is inactive: -2.1%.

**Q.** Which Potency does the source give for `C/C(=N\Nc1ccc(Cl)c(C(=O)O)c1)c1cccc2ccccc12` here?
**A.** The Potency was inconclusive: 79.4 µM [inhibitor, partial curve].

**Q.** `COc1ccc(CNc2cc(-c3ccccc3C)ncn2)c(OC)c1` was tested. Which Potency did it give?
**A.** The Potency was inconclusive: 50.1 µM [inhibitor, partial curve].

**Q.** How did the Potency turn out when `COc1ccccc1S(=O)Cc1ccc(C(=O)NCc2ccccc2Cl)o1` (stereo not drawn) was run?
**A.** Its Potency is inconclusive: 89.1 µM [inhibitor, partial curve, poor fit].

**Q.** With `Cc1ncc(CO)c(CN)c1O` as the molecule, how does the Potency read?
**A.** The Potency was inconclusive: 89.1 µM [inhibitor, partial curve, poor fit].

**Q.** `CCCN(CCC)CCCNC(=O)c1cc2c(=O)[nH]c3ccccc3c2n1C` was tested. Which Potency did it give?
**A.** Its Potency is inconclusive: 89.1 µM [inhibitor, single point].

**Q.** For `O=C(CSc1c2c(nc3cc(Cl)ccc13)CCCC2)NCc1ccccc1Cl`, which max response, negative = inhibition is on record?
**A.** The max response, negative = inhibition was inactive: -27.4%.

**Q.** Which Potency does the source give for `CN1CCN(C(=S)c2ccc(-c3cccc([N+](=O)[O-])c3)o2)CC1` here?
**A.** The Potency was inconclusive: 17.8 µM [inhibitor, partial curve, poor fit].

**Q.** `CC(C)CCN(C(=O)Nc1ccc(Cl)c(Cl)c1)C(C)c1cccs1` (stereo not drawn) was tested. Which Potency did it give?
**A.** The Potency was inconclusive: 39.8 µM [inhibitor, single point].

**Q.** `Cc1cc(=O)c2c(O)cc(O)c(C)c2o1` was tested. Which Potency did it give?
**A.** The Potency was inconclusive: 56.2 µM [inhibitor, partial curve].

**Q.** How did the max response, negative = inhibition turn out when `Cc1cccc(Cc2c(C)nc3nc(SCC(=O)NCc4ccco4)nn3c2C)c1` was run?
**A.** Its max response, negative = inhibition is inactive: -4.96%.

**Q.** How did the Potency turn out when `COc1ccc(N2C(=S)N=C(Nc3cccc(C)c3)C23CCCCC3)cc1` was run?
**A.** The Potency was inconclusive: 100 µM [inhibitor, partial curve, poor fit].

**Q.** With `Cc1ccc(Cn2c(=S)[nH]c3ccc(N4CCOCC4)cc3c2=O)o1` as the molecule, how does the Potency read?
**A.** The Potency was active: 17.8 µM.

**Q.** How did the Potency turn out when `O=C(O)c1ccc(NC2=C/C(=N/S(=O)(=O)c3ccccc3)c3ccccc3C2=O)cc1` was run?
**A.** The Potency was inconclusive: 44.7 µM [inhibitor, partial curve, poor fit].

**Q.** Which Potency does the source give for `COc1cc2[nH]c(C(=O)N3CC(C)OC(C)C3)cc2c(OC)c1OC` (stereo not drawn) here?
**A.** The Potency was inconclusive: 1.58 µM [inhibitor, full curve, poor fit].

**Q.** `CN(Cc1ccco1)c1ncncc1-c1ccc2c(c1)OCO2` was tested. Which Potency did it give?
**A.** Its Potency is inconclusive: 56.2 µM [inhibitor, partial curve, poor fit].

**Q.** For `Cc1cc(=O)n(CC(=O)N2CCN(c3ccc(F)cc3)CC2)c2c1c(C)nn2C`, which max response, negative = inhibition is on record?
**A.** The max response, negative = inhibition was inactive: -9.84%.

**Q.** With `O=C(CN1C(=O)CCC1=O)Nc1nc(-c2ccc(Cl)s2)cs1` as the molecule, how does the Potency read?
**A.** Its Potency is inconclusive: 79.4 µM [inhibitor, partial curve].

**Q.** Which Potency does the source give for `CCN1CCN(CCC(=O)Nc2ccc(Br)c(C)c2)CC1` here?
**A.** The Potency was inconclusive: 89.1 µM [inhibitor, single point].

**Q.** `COc1cccc(NC(=O)CCc2nnc3ccc(N4CCN(c5cccc(OC)c5)CC4)nn23)c1` was tested. Which Potency did it give?
**A.** The Potency was inconclusive: 25.1 µM [inhibitor, single point].

**Q.** With `CCOC(=O)/C(C#N)=C1\CC2CCC1(C)C2(C)C` (stereo not drawn) as the molecule, how does the Potency read?
**A.** The Potency was active: 79.4 µM.

**Q.** For `O=C1NC(=S)SC1=Cc1ccccc1Cl`, which Potency is on record?
**A.** Its Potency is inconclusive: 56.2 µM [inhibitor, partial curve, poor fit].

**Q.** For `COc1ccc2[nH]c3c(=O)n(Cc4ccc(C(=O)N5CCC(C(N)=O)CC5)cc4)c(=S)[nH]c3c2c1`, which Potency is on record?
**A.** Its Potency is inconclusive: 14.1 µM [inhibitor, partial curve].

**Q.** With `O=S(=O)(O)c1cccc2cccc(Nc3ccccc3)c12` as the molecule, how does the Potency read?
**A.** The Potency was inconclusive: 35.5 µM [inhibitor, single point].

**Q.** Which max response, negative = inhibition does the source give for `Cc1ccc2[nH]c(=O)c3cc(C(=O)NCCc4ccc(Cl)cc4)sc3c2c1` here?
**A.** The max response, negative = inhibition was inactive: 1.05%.

**Q.** With `Nc1sc(-c2ccccc2)cc1-c1n[nH]c(=S)n1C1CCCCC1` as the molecule, how does the max response, negative = inhibition read?
**A.** The max response, negative = inhibition was inactive: -17.7%.

**Q.** Which max response, negative = inhibition does the source give for `CC1=NN(c2ccccc2)C(=O)C1C(=O)C(=O)Nc1ccc(F)cc1` (stereo not drawn) here?
**A.** Its max response, negative = inhibition is inactive: -19.8%.
